The record followed here is the supplement of paper PMC11150407.

The structures appear in SMILES notation. In all, about 3,000 compounds went through this assay and about 45 (2%) showed an effect of 50% or more. Some of the results follow.

This experiment deals with MOLM1 and UCSD/AML1 (averaged). The experiment can be described thus: cell viability relative to DMSO control (POC); higher = less growth inhibition. The note with it: 1 µM; 72 h. The method, then: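 Primary viability screen in the 3q26 EVI1-high AML cell lines MOLM1 and UCSD/AML1, compounds at 1 uM for 72 h. ATP CellTiter-Glo read-out given as percent viable over DMSO control (POC), averaged over duplicates. This mapping covers the TimTec NDL-3000 natural derivative library, whose compounds are identified by TimTec catalogue codes (ST...).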
For `Cc1ccc(-n2c(SCC(=O)Nc3c(F)c(F)cc(F)c3F)nc3c(=O)[nH]cnc32)cc1`, the cell viability was determined as 102%.
Next, `COc1ccc(CCNS(C)(=O)=O)cc1OC`: 105%; `C=CCOC(=O)C1(C)CCC2(C)CCC3(C)C(=CC(=O)C4C5(C)CCC(OC(C)=O)C(C)(C)C5CCC43C)C2C1` (stereo unspecified): 99.4%; `COc1cc(C(=O)NNC(=O)C2CC=CCC2C(=O)O)cc(OC)c1OC` (stereo unspecified): 99.9%.
Next, `CCOc1ccc(C(c2c[nH]c3ccccc23)c2c[nH]c3ccccc23)cc1`: 99.7%; `Cc1ccc(C(=O)NC(C)(C)C(=O)N/N=C/c2c(O)c(O)c(C(C)C)c3cc(C)c(-c4c(C)cc5c(C(C)C)c(O)c(O)c(/C=N/NC(=O)C(C)(C)NC(=O)c6ccc(C)cc6)c5c4O)c(O)c23)cc1`: 101%.
For `COC(=O)c1[nH]c2cccc(OC)c2c1N`, the cell viability turned out to be 99.5%.
Next, `COc1cc(CNC(=O)COc2ccc(C3CCCCC3)cc2)cc(OC)c1OC`: 95%; `CCOc1ccc2oc(=O)cc(Cn3c(=O)c4c(C(=O)OC)cc(C5CC5)nc4n(C)c3=O)c2c1`: 91.3%; `O=C(Cn1c(=O)cc(C(=O)N2CCCCC2)c2ccccc21)Nc1ccccc1`: 100%.
For `C=CCN(C(=O)CSc1nc2c(=O)[nH]cnc2n1-c1ccc(C)cc1)c1ccccc1` the value was 96.5%; for `CN(C)c1ccc2cc3ccc(=[N+](C)C)cc-3oc2c1`, 3.15%; for `CCOc1ccc(C(=O)Nc2ccccc2OC)cc1OCC`, 89.7%.
In the case of `O=C(C[C@H](NC(=O)OCC1c2ccccc2-c2ccccc21)C(=O)O)NC(c1ccccc1)(c1ccccc1)c1ccccc1`, the cell viability is 90.1%.
For `N#C/C(=C\c1ccc(-c2ccc(Cl)c(Cl)c2)o1)C(=O)N1CCc2ccccc2C1` the value was 97.6%.
Next, `CN(C(=O)CN(CCO)CC(=O)N(C)C(C)(C)Cc1ccccc1)C(C)(C)Cc1ccccc1`: 95.8%; `Cc1cccc(Cn2c(SCc3ccc(Cl)cc3)nc3c2c(=O)[nH]c(=O)n3C)c1`: 95.2%; `COc1cc2c(cc1OC)C1(C)N(CC2)C(=O)OC1(C)C` (stereo unspecified): 108%.
Next, `O=C(/C=C/c1ccc(Cl)cc1Cl)c1ccc(Br)cc1`: 108%; `COc1cc(C2/C(=C(\O)c3ccccc3)C(=O)C(=O)N2c2cccc(C)c2)ccc1O` (stereo unspecified): 89.6%.
As to `COc1cc(/C=C(\C(=O)c2ccc(C)cc2)c2nc3ccccc3o2)ccc1O`, the cell viability came out at 95.9%.
For `COc1cc(OC)cc(C(=O)NCc2ccc3[nH]c4c(c3c2)CCCC4)c1` the value was 97%.
For `O=C(/C=C/c1ccc2c(c1)OCO2)c1ccc2c(c1)OCCO2` the value was 104%; for `CC(=O)Nc1nc(-c2ccccc2)nc2c1c(=O)oc1ccccc12`, 93.3%; for `COC(=O)CNC(=O)c1ccc(Cl)cc1`, 96.7%.
Next, `NC(Cc1ccc(F)cc1)C(=O)O` (stereo unspecified): 96.1%; `CC(C)(C)OC(=O)N[C@@H](CC(=O)OCc1ccccc1)C(=O)O`: 95.4%.
As for `CCN(CC)CCC(=O)c1ccc(OC)c(OC)c1`, the cell viability was determined as 98.6%.
Next, `COc1cccc(C2Nc3ccccc3NC3=C2C(=O)CC(c2ccc(Cl)cc2)C3)c1OC` (stereo unspecified): 111%.
Next, `C=C(C)C1CCC2(C)CCC3(C)C(CCC4C5(C)CCC(OC(C)=O)C(C)(C)C5CCC43C)C12` (stereo unspecified): 102%; `Cc1c(-c2ccc(Cl)cc2)c(=O)oc2cc(O)ccc12`: 93.9%; `CCOC(=O)Cn1c(Sc2nc3c(c(=O)n(C)c(=O)n3C)n2C)nc2ccccc21`: 101%.
Next, `CCCOC(=O)/C(=C\c1ccncc1)NC(=O)c1ccccc1`: 105%; `O=C(NCc1ccccc1)c1c(O)c2ccccc2[nH]c1=O`: 120%.
With `CC1CCCCN1C(=O)CSc1nc2ccccc2c(=O)[nH]1` (stereo unspecified), the cell viability is 96.7%.
As to `CC(=O)n1cc(N2C(=O)C3C4C=CC(C4)C3C2=O)c(=O)[nH]c1=O` (stereo unspecified), the cell viability is 101%.
For `Cc1cc(OCCN=Cc2c(O)c(O)c(C(C)C)c3cc(C)c(-c4c(C)cc5c(C(C)C)c(O)c(O)c(C=NCCOc6cc(C)c(Cl)c(C)c6Cl)c5c4O)c(O)c23)c(Cl)c(C)c1Cl` the value was 87.2%; for `CCOc1ccc2oc(=O)cc(CN3CCN(Cc4ccc(F)cc4Cl)CC3)c2c1`, 93.3%; for `O=C(Cn1c(=O)cc(C(=O)NCc2ccccc2)c2ccccc21)Nc1ccc(Cl)cc1`, 89.8%.
For `COc1cc(OC)cc(C(=O)c2ccc(C(=O)Nc3cc(C(C)C)c(O)cc3C)cc2)c1` the value was 82.8%; for `CCOc1ccc(-c2oc3ccccc3c(=O)c2OS(=O)(=O)c2ccc(Br)cc2)cc1`, 89.2%; for `COc1ccc2c(c1)c(CC(=O)NC(C)c1ccccc1)c(C)n2C(=O)c1ccc(Cl)cc1` (stereo unspecified), 82.8%.
Regarding `Cc1cc2occ(Br)c(=O)c2cc1Cl`, the cell viability was found to be 86.9%.
For `O=C(/C=C/c1cccc(O)c1)c1ccccc1O` the value was 78.9%; for `O=C(/C=C/c1ccc(Cl)c(Cl)c1)c1ccc2ccccc2c1O`, 103%; for `Cc1cc2c(c(O)c1-c1c(C)cc3c(c1O)/C(=C/NNC(=O)c1ccncc1)C(=O)C(O)=C3C(C)C)/C(=C/NNC(=O)c1ccncc1)C(=O)C(O)=C2C(C)C`, 86.7%.
Next, `COc1cc2c3cc1Oc1cc(ccc1O)C[C@H]1c4cc(c(OC)cc4CCN1C)Oc1cc(ccc1O)C[C@@H]3N(C)CC2`: 93.4%.
Next, `CCOc1ccc2oc(=O)cc(CN3CCN(Cc4nc(-c5cccc(Cl)c5)oc4C)CC3)c2c1`: 103%.
In the case of `Cc1cc(=O)oc2cc(OC(=O)c3cccc(Cl)c3)ccc12`, the cell viability amounted to 99.1%.
For `COc1cc(C2=NOC(=O)/C2=C\c2ccc(Br)cc2)cc(OC)c1OC` the value was 110%.
Next, `Cc1[nH]c2ccccc2c1CCNC(=O)c1ccccc1[N+](=O)[O-]`: 103%.
Next, `CCN(CC)c1ccc(C2C3CCCCC3(O)CCN2C(=O)C2c3ccccc3Oc3ccccc32)cc1` (stereo unspecified): 93.5%; `O=c1cc(-c2ccccc2)oc2ccc(Br)cc12`: 83.8%; `COc1ccc(C2NCCc3c2[nH]c2ccccc32)cc1COc1ccccc1C1CCCCC1` (stereo unspecified): 79.3%.
As to `CC1(C)OC2C[C@H]3[C@@H]4C[C@H](F)C5=CC(=O)C=CC5(C)[C@@]4(F)C(O)CC3(C)C2(C(=O)CO)O1` (stereo partly specified), the cell viability was determined as 82%.
On to `COc1ccc2[nH]c(C)c(CCNS(=O)(=O)c3c(C)[nH]c(=O)[nH]c3=O)c2c1`, for which the cell viability was 96.8%.
As for `Cc1ccc(C(=O)OCC2OC(n3cc(C=O)c(=O)[nH]c3=O)CC2OC(=O)c2ccc(C)cc2)cc1` (stereo unspecified), the cell viability is 108%.
For `CC(=CCC/C(C)=C/COc1ccc2ccc(=O)oc2c1)CCC(=O)C(C)(C)O` the value was 101%; for `CC(=O)N(c1cc(Cl)c2nc(C)cc(C)c2c1Oc1cccc(C(F)(F)F)c1)C1OC(CO)C(O)C(O)C1O` (stereo unspecified), 94.2%.
Next, `COC(=O)C1Cc2c([nH]c3ccccc23)C(c2ccc(OC)cc2OC)N1` (stereo unspecified): 99.6%.
Next, `Cc1ccc(-n2c(SCC(=O)Nc3cccc(Cl)c3)nc3c(=O)[nH]cnc32)cc1`: 106%; `O=C(c1cccnc1)N1N=C(c2c(-c3ccccc3)c3cc(Br)ccc3[nH]c2=O)CC1c1ccccc1` (stereo unspecified): 82.5%; `COc1ccc(C(=O)Nc2ccccc2C(=O)Nc2cccc(C)n2)cc1OC`: 96.7%.
Consider `COc1ccc(Cn2c(-c3ccc(OC)cc3)nc3ccccc32)cc1`, for which the cell viability turned out to be 102%.
In the case of `Cc1cc(S(=O)(=O)Nc2ccc(-n3ccnc3)c(Cl)c2)c2[nH]c(=O)cc(C)c2c1`, the cell viability worked out at 95.4%.
Next, `Cc1cc(C)c2[nH]c(=O)cc(C)c2c1`: 98.2%.
Next, `CCc1cccc(C)c1NC(=O)CN1CCN(Cc2cc(=O)oc3cc(C)ccc23)CC1`: 95.4%; `Cc1[nH]c2ccc(Br)cc2c1CCNC(=O)c1cc2ccccc2oc1=O`: 98.9%; `Cc1cc(=O)[nH]c2ccc(S(=O)(=O)N3CCN(C(=O)c4ccco4)CC3)cc12`: 94%.
Next, `Cc1ccc(NC(=O)Cn2c(=O)cc(C(=O)NCc3ccccc3)c3ccccc32)cc1F`: 97.1%; `CCOC(=O)[C@H]1CCC(=O)N1`: 17.6%.
In the case of `COc1ccc(-c2cc(-c3ccc4c(c3)OCO4)[nH]c(=O)c2C#N)cc1`, the cell viability is 97.1%.
Regarding `COc1ccc(C(=O)NCC(C)c2ccccc2)cc1OC` (stereo unspecified), the cell viability came to 88.4%.
Turning to `COc1cc(CNC2CCCCC2OC)cc(OC)c1OC` (stereo unspecified), the cell viability is 102%.
Regarding `CCCNC(=O)c1cc(=O)n(CC(=O)Nc2cccc(Br)c2)c2ccccc12`, the cell viability was determined as 87.2%.
Next, `CNC(=O)c1cc(=O)n(CC(=O)Nc2ccccc2F)c2ccccc12`: 102%.
For `CCCc1ccc(OCCn2c(C)c(C(=O)OCC)c3cc(O)c4ccccc4c32)cc1` the value was 91.4%.
Next, `COc1cc(C(=S)N2CCOCC2)cc(OC)c1OC(=O)c1ccccc1Cl`: 92.5%.
In the case of `COc1cccc(/C(C)=N/Nc2nc(SCC(=O)c3ccc4c(c3)OCO4)n[nH]2)c1`, the cell viability is 97.1%.
Take `COc1cc(-c2nnc(SCC(=O)N(C)c3ccccc3)o2)cc(OC)c1OC`: the cell viability amounted to 104%.
Next, `O=C(CCS(=O)(=O)c1ccccc1)N1CCc2ccccc2C1`: 104%; `Cc1ccc2c(CN3CCN(Cc4cccc(Cl)c4)CC3)cc(=O)oc2c1`: 103%.
Next, `COc1cc(C(=O)NO)cc(OC)c1OC`: 94.2%; `C=CCOc1ccc(/C=C2/Oc3ccc(C(=O)OC)cc3C2=O)cc1OC`: 102%.
For `CCOC(=O)c1c(NC(=O)c2cc(OC)c(OC)c(OC)c2)sc(C(=O)Nc2cc(C(F)(F)F)ccc2Cl)c1C` the value was 104%; for `COc1cc(C(=O)Nc2ccc(Br)c(Cl)c2)cc(OC)c1OC`, 87%; for `NC(Cc1cccc(F)c1)C(=O)O` (stereo unspecified), 112%.
For the compound `Cc1ccc(NC(=O)Cn2c(Br)nc3c2c(=O)n(C)c(=O)n3C)cc1`, the cell viability was 104%.
Next, `CC(=O)OC1C=C(C)c2ccc(O)cc2O1` (stereo unspecified): 102%; `COc1ccc(NC(=O)CSc2nc3ccccc3c(=O)[nH]2)cc1OC`: 97.5%.
For `COc1ccc2c3c(c(=O)oc2c1OC(C)C(=O)c1ccccc1)CCCC3` (stereo unspecified), the cell viability came to 101%.
Next, `COc1cc(C2C(C#N)=C(N)Oc3n[nH]c(-c4ccccc4)c32)cc2c1OCO2` (stereo unspecified): 99.1%.
For `CCc1ccc(NC(=O)CSc2nc3c(=O)[nH]cnc3n2-c2ccccc2)cc1` the value was 115%.
For `COc1cc(C(=O)NCC(C)NC(=O)c2cc(OC)c(OC)c(OC)c2)cc(OC)c1OC` (stereo unspecified) the value was 99.3%; for `O=C1C(Cl)=C(NC2CCN(Cc3ccccc3)CC2)C(=O)c2ccccc21`, 103%.
For the compound `COC(=O)NCCc1cc(OC)c(OC)cc1NC(=O)c1ccc(OC)c(OC)c1`, the cell viability was 108%.
